In patent US12187720B2, “Compounds for treatment of cancer” (ONCTERNAL THERAPEUTICS, INC., priority 2010, dated 2025):
Some results were stated once for a whole list of compounds, not compound by compound.

Test system: DU 145
Assay: SRB cytotoxicity assay, DU 145 prostate cancer cells
Assay type: cell-based, human
Conditions: Table 13B; read-out: inhibitory effects DU145
From the text: Cells were stained with SRB solution.

4-Methoxyphenyl(4-(3,4,5-trimethoxyphenyl)-1H-imidazol-2-yl)methanone and 4-methoxyphenyl(5-(3,4,5-trimethoxyphenyl)-1H-imidazol-2-yl)methanone [70y]
IC50: > 50 µM
